Paper PMC9929257
These are yes or no findings as the source states them, for the method shown. For part of these data: In cells and extracts the contact can be indirect. Some results given as binding are weak or reduced against the parent protein; the word gives no strength.

By UniProt entry, the sequences of proteins in these tests, tags left out. Where a name states a change or a piece, a line headed by the entry shows the natural chain unless it says otherwise.
UniProt Q9BV68: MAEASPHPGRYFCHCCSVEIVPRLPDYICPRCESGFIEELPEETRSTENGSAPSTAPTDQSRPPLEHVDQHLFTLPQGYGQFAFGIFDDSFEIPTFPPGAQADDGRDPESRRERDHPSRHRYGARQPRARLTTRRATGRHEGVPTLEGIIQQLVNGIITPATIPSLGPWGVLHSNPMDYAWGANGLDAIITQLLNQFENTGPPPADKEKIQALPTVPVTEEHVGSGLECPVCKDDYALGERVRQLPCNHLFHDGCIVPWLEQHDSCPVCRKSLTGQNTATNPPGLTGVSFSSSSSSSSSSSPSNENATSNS
UniProt Q92878: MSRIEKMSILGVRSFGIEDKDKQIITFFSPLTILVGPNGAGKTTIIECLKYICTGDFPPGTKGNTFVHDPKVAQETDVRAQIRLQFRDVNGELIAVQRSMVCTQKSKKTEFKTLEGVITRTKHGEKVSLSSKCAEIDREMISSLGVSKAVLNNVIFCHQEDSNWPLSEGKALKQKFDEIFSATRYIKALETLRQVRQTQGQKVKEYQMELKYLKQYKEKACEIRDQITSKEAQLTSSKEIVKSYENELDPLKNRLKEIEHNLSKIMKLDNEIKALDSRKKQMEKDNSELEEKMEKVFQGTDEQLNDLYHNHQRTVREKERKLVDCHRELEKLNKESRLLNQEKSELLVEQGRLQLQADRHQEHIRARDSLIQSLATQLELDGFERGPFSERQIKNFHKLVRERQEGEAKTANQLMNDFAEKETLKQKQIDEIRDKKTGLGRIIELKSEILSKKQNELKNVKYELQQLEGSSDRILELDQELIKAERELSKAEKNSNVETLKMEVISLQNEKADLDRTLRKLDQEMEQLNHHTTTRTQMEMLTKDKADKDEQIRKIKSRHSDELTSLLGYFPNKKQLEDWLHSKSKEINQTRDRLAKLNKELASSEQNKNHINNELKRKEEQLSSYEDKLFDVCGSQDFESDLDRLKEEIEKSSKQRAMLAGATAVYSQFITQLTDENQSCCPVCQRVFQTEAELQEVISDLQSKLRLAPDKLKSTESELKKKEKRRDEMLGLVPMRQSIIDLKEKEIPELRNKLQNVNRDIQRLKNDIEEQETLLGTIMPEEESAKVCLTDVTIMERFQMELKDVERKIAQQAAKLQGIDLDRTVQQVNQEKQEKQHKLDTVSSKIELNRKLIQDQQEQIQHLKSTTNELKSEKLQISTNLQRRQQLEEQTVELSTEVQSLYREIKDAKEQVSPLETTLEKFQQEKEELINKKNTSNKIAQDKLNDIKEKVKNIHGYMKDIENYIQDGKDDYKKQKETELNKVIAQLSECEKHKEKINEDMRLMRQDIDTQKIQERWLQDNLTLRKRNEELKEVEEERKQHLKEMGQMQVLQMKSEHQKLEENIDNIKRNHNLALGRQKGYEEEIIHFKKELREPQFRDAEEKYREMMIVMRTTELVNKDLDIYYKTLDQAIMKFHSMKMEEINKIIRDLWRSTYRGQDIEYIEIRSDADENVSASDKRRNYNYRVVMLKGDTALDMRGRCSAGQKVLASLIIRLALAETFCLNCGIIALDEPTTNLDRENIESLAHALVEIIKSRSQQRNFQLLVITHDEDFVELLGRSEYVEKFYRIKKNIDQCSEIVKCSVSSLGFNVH
UniProt O60934: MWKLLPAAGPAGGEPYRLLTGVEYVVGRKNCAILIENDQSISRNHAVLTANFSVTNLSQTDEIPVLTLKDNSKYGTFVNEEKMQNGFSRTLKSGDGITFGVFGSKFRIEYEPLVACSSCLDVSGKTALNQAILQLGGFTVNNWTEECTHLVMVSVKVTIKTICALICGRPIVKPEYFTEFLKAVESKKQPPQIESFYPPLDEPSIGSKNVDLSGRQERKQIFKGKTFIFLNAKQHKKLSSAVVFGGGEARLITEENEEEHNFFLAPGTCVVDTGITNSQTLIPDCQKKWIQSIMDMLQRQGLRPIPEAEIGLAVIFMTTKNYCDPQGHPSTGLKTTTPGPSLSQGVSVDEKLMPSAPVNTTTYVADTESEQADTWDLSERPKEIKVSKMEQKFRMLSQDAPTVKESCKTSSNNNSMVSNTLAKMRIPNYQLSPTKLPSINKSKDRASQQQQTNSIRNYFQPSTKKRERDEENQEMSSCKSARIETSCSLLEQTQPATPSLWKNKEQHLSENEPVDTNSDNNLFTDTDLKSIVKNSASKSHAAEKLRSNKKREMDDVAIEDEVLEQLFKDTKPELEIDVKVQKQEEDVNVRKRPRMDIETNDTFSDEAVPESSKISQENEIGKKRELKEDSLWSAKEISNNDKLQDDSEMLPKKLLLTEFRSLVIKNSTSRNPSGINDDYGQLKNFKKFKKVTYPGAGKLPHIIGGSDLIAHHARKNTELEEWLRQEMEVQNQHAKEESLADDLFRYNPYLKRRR
UniProt Q13535: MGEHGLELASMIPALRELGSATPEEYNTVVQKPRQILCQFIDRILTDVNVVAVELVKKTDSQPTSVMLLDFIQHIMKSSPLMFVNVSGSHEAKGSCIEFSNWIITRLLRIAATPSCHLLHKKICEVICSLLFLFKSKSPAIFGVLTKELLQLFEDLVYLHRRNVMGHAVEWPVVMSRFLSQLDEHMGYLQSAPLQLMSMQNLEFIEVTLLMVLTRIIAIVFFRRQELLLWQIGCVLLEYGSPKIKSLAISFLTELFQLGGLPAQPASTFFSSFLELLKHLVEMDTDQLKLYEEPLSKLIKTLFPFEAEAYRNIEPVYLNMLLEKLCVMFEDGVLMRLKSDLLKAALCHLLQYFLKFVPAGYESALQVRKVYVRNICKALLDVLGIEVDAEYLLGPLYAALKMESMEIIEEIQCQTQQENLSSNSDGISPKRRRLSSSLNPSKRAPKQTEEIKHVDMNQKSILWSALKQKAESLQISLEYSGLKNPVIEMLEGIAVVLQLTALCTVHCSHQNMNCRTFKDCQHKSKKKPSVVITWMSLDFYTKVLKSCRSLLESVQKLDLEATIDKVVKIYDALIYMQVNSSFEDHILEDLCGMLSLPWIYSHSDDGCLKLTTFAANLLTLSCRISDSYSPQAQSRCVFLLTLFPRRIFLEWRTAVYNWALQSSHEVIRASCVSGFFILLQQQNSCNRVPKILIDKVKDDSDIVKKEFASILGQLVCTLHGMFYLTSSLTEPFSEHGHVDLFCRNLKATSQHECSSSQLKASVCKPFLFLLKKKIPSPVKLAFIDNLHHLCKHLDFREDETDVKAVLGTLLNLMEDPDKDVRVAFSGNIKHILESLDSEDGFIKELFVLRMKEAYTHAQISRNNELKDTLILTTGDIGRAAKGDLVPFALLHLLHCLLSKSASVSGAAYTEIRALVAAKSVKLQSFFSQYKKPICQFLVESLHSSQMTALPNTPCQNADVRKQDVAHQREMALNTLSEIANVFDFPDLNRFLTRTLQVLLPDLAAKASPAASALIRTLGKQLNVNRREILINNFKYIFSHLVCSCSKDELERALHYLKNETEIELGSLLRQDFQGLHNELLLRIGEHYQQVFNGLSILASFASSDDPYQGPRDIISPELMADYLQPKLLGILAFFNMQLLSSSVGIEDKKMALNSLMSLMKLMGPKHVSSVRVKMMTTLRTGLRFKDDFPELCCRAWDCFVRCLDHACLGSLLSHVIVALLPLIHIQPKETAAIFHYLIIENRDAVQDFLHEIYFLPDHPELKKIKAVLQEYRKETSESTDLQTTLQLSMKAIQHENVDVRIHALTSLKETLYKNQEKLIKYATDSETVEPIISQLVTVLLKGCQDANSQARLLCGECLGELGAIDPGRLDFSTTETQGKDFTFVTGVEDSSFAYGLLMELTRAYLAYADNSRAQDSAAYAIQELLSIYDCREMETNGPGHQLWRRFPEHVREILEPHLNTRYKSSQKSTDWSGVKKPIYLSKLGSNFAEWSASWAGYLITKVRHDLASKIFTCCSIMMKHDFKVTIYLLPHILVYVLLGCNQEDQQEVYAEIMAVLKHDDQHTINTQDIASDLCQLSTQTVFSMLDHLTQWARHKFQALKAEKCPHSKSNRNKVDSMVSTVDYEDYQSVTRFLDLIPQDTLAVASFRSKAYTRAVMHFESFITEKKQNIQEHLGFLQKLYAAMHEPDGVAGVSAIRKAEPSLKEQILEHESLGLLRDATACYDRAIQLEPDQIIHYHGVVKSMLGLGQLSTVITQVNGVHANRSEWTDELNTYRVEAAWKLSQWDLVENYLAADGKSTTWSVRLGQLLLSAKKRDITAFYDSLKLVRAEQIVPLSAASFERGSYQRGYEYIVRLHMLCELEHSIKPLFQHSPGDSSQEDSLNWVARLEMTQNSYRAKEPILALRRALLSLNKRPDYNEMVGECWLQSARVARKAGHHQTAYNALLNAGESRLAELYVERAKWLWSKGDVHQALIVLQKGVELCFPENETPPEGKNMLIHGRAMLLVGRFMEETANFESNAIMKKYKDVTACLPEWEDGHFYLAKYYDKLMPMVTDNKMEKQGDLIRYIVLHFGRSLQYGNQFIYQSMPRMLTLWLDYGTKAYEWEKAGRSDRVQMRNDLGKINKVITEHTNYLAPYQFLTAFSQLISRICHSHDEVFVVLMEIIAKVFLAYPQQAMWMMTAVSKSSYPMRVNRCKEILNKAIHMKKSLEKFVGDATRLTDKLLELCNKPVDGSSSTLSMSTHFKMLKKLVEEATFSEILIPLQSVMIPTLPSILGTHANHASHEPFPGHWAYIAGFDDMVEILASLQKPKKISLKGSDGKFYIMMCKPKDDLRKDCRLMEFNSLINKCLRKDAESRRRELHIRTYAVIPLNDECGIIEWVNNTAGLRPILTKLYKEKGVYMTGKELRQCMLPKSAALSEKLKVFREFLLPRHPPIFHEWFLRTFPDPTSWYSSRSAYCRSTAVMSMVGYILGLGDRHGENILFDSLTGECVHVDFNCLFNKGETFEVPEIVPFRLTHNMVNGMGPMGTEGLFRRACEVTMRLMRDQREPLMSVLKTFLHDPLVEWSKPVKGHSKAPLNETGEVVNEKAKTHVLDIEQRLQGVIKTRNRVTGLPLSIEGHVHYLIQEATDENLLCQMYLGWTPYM

Tests used:
GST-RNF126 (human) = GST-RNF126 (human) (UniProt Q9BV68); test: pull-down; GST-fused RNF126 or its fragments and FLAG-RAD50, FLAG-NBS1 or FLAG-MRE11 co-expressed in HEK293T cells; GST-pulldown, Western blotting
[1] = biological target: RNF126 (endogenous, HCC1806) (human (endogenous in HCC1806)) (UniProt Q9BV68); test: co-IP; endogenous proteins; HCC1806 cells treated with or without IR (10 Gy), extracts harvested 1 h after IR; coimmunoprecipitation, Western blotting
[2] = biological target: RNF126 (endogenous, HCC1806) (human (endogenous in HCC1806)) (UniProt Q9BV68); test: SEC; FPLC of native complexes: extracts of HCC1806 cells 1 h post-IR (10 Gy) fractionated on Superose 6 size-exclusion columns with a high-salt buffer; Western blotting of fractions
[3] = biological target: RNF126 (construct of Figures S3A-D, not shown) (human) (UniProt Q9BV68); test: co-IP; co-IP of RNF126 and RAD50 (Figure S3A,B); cells and constructs not shown

Row | Substance | binding (GST-RNF126 (human)) | binding [1] | binding [2] | binding [3]
1 | FLAG-RAD50 (from UniProt Q92878 1-1312) | binds | – | – | –
2 | FLAG-NBS1 (from UniProt O60934 1-754) | binds | – | – | –
3 | RAD50 (endogenous, HCC1806) (from UniProt Q92878 1-1312) | – | binds | binds | –
4 | NBS1 (endogenous, HCC1806) (from UniProt O60934 1-754) | – | binds | binds | –
5 | ATR (endogenous, HCC1806) (from UniProt Q13535 1-2644) (enzyme) | – | binds | binds | –
6 | RAD50 (construct of Figure S3A,B, not shown) (from UniProt Q92878 1-1312) | – | – | – | binds
